Drawing on article PMC4200255, this text covers binding for seven molecules.

Sequences of proteins named here, by UniProt entry; tags and fusion partners are left off.
UniProt Q9UNE7: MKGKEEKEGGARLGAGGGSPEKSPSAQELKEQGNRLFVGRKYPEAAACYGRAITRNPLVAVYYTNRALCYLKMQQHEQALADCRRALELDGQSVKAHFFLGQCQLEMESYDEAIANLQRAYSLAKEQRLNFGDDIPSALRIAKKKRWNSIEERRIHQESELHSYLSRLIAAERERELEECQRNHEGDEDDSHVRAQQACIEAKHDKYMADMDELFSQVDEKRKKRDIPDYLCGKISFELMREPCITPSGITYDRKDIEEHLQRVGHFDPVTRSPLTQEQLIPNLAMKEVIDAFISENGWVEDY
UniProt P11142: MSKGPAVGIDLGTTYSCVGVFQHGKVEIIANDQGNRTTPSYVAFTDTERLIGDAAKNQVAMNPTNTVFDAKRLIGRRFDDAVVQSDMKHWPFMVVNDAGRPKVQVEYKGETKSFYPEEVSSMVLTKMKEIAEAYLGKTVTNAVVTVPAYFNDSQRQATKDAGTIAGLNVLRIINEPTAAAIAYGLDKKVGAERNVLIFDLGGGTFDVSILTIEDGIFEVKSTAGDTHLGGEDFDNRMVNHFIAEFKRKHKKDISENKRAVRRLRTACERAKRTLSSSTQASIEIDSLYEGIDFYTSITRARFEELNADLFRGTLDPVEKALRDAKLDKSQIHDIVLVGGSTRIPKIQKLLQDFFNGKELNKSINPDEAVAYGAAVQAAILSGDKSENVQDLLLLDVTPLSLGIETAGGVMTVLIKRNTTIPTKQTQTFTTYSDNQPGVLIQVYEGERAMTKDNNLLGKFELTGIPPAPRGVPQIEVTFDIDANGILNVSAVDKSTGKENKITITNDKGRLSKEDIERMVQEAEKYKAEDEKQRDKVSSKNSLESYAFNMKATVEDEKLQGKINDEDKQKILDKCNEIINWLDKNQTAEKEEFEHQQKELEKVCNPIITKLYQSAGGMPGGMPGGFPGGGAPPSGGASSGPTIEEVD
UniProt P08238: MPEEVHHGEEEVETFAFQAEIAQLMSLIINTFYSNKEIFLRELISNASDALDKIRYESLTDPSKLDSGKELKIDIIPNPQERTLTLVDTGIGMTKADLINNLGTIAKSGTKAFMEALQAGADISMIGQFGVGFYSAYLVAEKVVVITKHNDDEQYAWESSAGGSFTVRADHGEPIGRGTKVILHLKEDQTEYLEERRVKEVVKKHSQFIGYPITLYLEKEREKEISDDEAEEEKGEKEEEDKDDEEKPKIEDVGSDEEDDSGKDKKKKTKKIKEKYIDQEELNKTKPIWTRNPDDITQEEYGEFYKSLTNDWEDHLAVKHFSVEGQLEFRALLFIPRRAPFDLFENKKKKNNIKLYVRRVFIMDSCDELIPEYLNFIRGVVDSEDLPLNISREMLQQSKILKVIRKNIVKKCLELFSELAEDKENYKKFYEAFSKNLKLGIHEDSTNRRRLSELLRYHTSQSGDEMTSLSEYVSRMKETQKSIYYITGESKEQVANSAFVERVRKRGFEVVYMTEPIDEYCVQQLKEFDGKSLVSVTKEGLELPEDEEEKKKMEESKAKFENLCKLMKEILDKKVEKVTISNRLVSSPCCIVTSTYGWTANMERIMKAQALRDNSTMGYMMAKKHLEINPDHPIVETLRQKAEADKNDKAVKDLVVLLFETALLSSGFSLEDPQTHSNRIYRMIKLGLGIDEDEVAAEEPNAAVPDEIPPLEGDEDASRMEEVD
UniProt P0DMV8: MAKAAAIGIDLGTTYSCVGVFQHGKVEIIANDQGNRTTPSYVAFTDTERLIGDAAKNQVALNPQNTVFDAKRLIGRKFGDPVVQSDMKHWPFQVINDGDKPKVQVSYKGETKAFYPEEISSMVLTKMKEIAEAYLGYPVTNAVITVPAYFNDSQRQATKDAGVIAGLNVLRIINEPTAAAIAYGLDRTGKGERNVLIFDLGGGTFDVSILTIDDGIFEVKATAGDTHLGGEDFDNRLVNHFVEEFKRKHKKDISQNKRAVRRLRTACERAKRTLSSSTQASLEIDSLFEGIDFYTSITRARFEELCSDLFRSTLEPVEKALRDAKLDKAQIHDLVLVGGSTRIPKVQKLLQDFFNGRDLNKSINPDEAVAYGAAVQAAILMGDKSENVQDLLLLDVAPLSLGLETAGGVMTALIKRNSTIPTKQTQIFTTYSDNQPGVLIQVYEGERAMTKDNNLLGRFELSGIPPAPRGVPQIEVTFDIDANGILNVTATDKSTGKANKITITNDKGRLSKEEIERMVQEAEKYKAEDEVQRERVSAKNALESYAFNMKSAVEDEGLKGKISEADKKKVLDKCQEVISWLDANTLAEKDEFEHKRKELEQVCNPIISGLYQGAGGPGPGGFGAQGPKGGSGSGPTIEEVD

These are yes or no findings as the source states them, for the method shown. For part of these data: In cells and extracts the contact can be indirect. Some results given as binding are weak or reduced against the parent protein; the word gives no strength. For part of these data: Tags and fused reporters may be left off the sequences shown.

Experiment [1] has as its target YFP-tagged SERT-R607A/I608A (human) (UniProt P31645). As to the kind of experiment: co-IP; detergent lysates of HEK293 cells stably expressing YFP-tagged SERT or mutants, anti-GFP antibody and protein A-Sepharose, blots for HSPs and co-chaperones; also after 24 h noribogaine (10 μM), pifithrin-μ (5 μM), 17-DMAG (2 μM) or combinations.
For experiment [2], the target named is YFP-tagged SERT-P601A/G602A (human) (UniProt P31645). Described as above.
Experiment [3] deals with YFP-tagged SERT-F604Q (human) (UniProt P31645). The experiment is described as above.
Experiment [4] concerns the target T1, GST-RLIIT (GST protein that carried only the five residues 596RLIIT600 of SERT) (human).
T1 sequence: RLIIT
As to the kind of experiment: pull-down; 10 μg GST fusion protein on glutathione-Sepharose, HEK293 cell lysate (0.15 ml, ~2 x 10^6 cells/sample; 1% Nonidet P-40 lysis buffer), 60 min at room temperature; immunoblot for HSP70-1A; only the target purified.

Experiment [5] shares this target. In words: pull-down; 10 μg GST fusion protein on glutathione-Sepharose, 2 μg recombinant HSP70 in 0.15 ml TBST, 60 min at room temperature; immunoblot for HSP70-1A; both purified. For orientation: A western blot detects proteins with antibodies after separation by electrophoresis.

As to “C terminus of HSP70-interacting protein (CHIP), E3-ligase, endogenous, HEK293 (from UniProt Q9UNE7 1-303)”, the binding result in experiment [1] and in experiment [2] was “binds” throughout.

Regarding “HSC70 (endogenous, HEK293) (from UniProt P11142 1-646)”, the binding result in experiment [2] was “binds”.

“HSC70-HSP90-organizing protein (HOP), endogenous, HEK293 (from UniProt P31948 1-543)”: the binding entry in experiment [1] and in experiment [2] was “binds” in each case. Turning to “HSP90β (endogenous, HEK293) (from UniProt P08238 1-724)”, the binding result in experiment [3], in experiment [1] and in experiment [2] was “binds” throughout. On to “endogenous HSP70-1A of HEK293 cells (from UniProt P0DMV8 1-641)”, for which the binding result in experiment [4] is reported as “binds”. In the case of “recombinant purified protein HSP70-1A (from UniProt P0DMV8 1-641)”, the binding entry in experiment [5] is listed as “binds”.

B1: p23/HSP90 co-chaperone (endogenous, HEK293) (protein, UniProt Q15185 1-160)
chain: MQPASAKWYDRRDYVFIEFCVEDSKDVNVNFEKSKLTFSCLGGSDNFKHLNEIDLFHCIDPNDSKHKRTDRSILCCLRKGESGQSWPRLTKERAKLNWLSVDFNNWKDWEDDSDEDMSNFDRFSEMMNNMGGDEDVDLPEVDGADDDSQDSDDEKMPDLE
Take B1: the binding entry in experiment [1] and in experiment [2] was “binds” each time.
